Results are given in words; binding and its absence hold for the method and conditions named. In cells and extracts the contact can be indirect. Some results given as binding are weak or reduced against the parent protein; the word gives no strength.
Key:
[1] = biological target: T1, calpain 3 (human (endogenous in skeletal muscle)) (UniProt P20807); experiment: proximity ligation; in situ PLA (Duolink II Red), 10-um cryosections of a control human (dorsal) muscle; primary antibodies pIS2C, 12A2-Calpain3, SERCA1, SERCA2a, ANK1; spots mean <40 nm distance
T1 sequence: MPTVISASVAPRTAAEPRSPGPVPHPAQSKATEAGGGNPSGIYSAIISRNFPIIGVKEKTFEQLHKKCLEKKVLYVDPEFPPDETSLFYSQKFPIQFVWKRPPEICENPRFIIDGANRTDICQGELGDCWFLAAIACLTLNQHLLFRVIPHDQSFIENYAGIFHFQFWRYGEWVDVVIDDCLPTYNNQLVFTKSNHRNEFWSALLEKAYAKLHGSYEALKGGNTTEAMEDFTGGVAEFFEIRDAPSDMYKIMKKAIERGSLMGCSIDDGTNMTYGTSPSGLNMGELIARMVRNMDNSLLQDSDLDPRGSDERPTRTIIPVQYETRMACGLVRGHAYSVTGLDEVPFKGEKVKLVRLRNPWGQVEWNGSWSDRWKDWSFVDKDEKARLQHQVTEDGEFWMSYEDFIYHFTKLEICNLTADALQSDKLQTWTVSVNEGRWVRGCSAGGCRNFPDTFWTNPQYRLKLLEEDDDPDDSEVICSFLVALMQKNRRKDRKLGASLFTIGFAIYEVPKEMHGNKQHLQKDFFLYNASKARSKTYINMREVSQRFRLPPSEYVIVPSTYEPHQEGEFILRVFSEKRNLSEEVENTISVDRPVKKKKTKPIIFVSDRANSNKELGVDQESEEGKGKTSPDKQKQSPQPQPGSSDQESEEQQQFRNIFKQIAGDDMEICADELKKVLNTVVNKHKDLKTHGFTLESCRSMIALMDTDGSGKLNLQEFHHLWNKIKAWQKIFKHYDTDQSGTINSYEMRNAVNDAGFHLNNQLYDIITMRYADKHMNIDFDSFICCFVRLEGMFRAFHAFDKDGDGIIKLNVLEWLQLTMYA

Chains of the proteins cited; added tags and fusions are not shown. Lines headed by an entry give the natural chain unless they say otherwise; changes in a name come on top. A line that says so, or that is headed by a name, gives the form on record, which may keep a tag or linker.
UniProt O14983: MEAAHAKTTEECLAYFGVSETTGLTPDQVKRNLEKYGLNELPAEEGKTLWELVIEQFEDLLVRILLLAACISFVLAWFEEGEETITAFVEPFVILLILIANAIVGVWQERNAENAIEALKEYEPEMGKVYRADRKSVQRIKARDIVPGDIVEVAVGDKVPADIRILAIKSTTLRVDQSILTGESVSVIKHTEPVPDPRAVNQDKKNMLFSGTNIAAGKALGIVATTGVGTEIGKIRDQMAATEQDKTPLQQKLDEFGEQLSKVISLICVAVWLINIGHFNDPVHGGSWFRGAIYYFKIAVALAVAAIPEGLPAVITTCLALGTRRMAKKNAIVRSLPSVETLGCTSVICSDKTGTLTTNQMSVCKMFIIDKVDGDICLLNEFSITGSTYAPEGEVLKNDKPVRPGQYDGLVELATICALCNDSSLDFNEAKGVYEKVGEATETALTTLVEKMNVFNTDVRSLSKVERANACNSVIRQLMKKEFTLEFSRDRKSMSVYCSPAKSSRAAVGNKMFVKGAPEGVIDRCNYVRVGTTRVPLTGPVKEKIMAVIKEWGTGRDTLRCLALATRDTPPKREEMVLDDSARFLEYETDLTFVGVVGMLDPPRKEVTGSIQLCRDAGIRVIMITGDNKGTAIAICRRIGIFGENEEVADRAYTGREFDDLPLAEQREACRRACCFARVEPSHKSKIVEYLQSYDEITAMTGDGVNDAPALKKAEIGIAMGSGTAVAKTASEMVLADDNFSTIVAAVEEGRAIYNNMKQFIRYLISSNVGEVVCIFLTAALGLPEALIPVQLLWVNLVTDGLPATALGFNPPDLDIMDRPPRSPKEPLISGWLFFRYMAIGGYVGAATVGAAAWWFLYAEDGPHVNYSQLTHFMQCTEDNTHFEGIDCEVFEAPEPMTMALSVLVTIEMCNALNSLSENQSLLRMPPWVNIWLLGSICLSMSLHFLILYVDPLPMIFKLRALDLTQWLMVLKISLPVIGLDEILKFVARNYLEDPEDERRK
sarco/endoplasmic reticulum Ca2+ ATPase 2 (P16615-2, form named): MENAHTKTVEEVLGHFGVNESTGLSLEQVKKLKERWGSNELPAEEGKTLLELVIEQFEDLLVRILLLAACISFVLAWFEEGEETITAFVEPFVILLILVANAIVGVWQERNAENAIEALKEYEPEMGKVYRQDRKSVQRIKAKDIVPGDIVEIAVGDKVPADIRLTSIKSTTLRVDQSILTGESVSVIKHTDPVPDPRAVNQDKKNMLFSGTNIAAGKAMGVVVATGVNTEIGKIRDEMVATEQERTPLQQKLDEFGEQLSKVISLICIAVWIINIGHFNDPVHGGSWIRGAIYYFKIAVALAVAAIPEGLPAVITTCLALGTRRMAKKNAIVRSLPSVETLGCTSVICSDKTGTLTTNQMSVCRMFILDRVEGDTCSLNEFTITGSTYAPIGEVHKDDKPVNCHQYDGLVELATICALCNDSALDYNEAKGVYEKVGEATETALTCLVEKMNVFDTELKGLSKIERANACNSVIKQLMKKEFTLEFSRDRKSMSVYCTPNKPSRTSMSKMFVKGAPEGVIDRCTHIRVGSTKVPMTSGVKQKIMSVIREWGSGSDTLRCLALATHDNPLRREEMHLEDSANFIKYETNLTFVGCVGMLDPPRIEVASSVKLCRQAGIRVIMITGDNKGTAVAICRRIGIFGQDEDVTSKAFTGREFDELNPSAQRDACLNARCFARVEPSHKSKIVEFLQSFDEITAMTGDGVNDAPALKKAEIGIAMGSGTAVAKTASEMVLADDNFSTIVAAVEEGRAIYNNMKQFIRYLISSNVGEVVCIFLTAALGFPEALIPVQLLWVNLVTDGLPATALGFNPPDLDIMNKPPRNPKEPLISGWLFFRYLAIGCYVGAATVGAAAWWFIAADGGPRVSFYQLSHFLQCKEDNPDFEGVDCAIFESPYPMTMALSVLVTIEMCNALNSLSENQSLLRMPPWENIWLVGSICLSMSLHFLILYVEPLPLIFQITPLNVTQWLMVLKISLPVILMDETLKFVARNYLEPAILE

[2] = biological target: T1, calpain 3 (human (endogenous in skeletal muscle)); experiment: co-IP; endogenous proteins; protein extract (500 ug) of the vastus lateralis of a healthy human donor in modified RIPA buffer (10 mM Tris, 100 mM NaCl, 1 mM EDTA, 1 mM EGTA, 1% Triton X-100, 0.5% sodium deoxycholate, 0.1% SDS, 10% glycerol, pH 7.5); antibodies against CAPN3 (pIS2C), SERCA1 or SERCA2 overnight at 4°C, protein G sepharose; Western blot; normal mouse and goat IgGs as negative controls

Row | binding [1] | binding [2] | Substance
1 | binds | binds | sarco/endoplasmic reticulum Ca2+ ATPase 1 (from UniProt O14983 1-1001)
2 | binds | binds | sarco/endoplasmic reticulum Ca2+ ATPase 2 (from UniProt P16615-2 1-997)
